Some entries share one result that the patent states for a list of compounds.
How the values were obtained:
Assay type in all cases: in vivo
[1] = test system: fall armyworm (Spodoptera frugiperda (J. E. Smith)); experiment: Test B: control of fall armyworm on corn plant, foliar spray; settings: 6 days, 40% or less feeding damage and/or 100% mortality
[2] = test system: Western Flower Thrips (Frankliniellla occidentalis (Pergande)); experiment: Test H: control of Western Flower Thrips through contact and/or systemic means; settings: 6 days, 30% or less plant damage and/or 100% mortality
Method: (§1) Formulation and Spray Methodology for Tests A-H
(§2) Test compounds were formulated using a solution containing 10% acetone, 90% water and 300 ppm Activator 90® non-ionic surfactant (Loveland Products, Loveland, Colo., USA). The formulated compounds were applied in 1 mL of liquid through an atomizer nozzle positioned 1.27 cm (0.5 inches) above the top of each test unit. Test compounds were sprayed at the rates indicated, and each test was replicated three times.
For evaluating control of the Western Flower Thrips (Frankliniellla occidentalis (Pergande)) through contact and/or systemic means, the test unit consisted of a small open container with a 8-9-day-old Soleil bean plant inside.
Test compounds were formulated and sprayed at 250, 50, 10 and 2 ppm. After spraying, the test units were allowed to dry for 1 hour, and then ˜60 thrips (adults and nymphs) were added to each unit. A black, screened cap was placed on top, and the test units were held for 6 days at 25° C. and 45-55% relative humidity. Each test unit was then visually assessed for plant damage and insect mortality.

[3] = test system: diamondback moth (Plutella xylostella (L.)); experiment: Test A: control of diamondback moth on mustard plant, foliar spray; settings: 6 days, 40% or less feeding damage and/or 100% mortality
[4] = test system: cotton melon aphid (Aphis gossypii (Glover)); experiment: Test F: control of cotton melon aphid through contact and/or systemic means; settings: 50 ppm spray; 6 days
Method: as §1, §2
[…] This was pre-infested with 30-40 insects on a piece of leaf according to the cut-leaf method, and the soil of the test unit was covered with a layer of sand.
Test compounds were formulated and sprayed at 250, 50 and 10 ppm. After spraying, the test units were maintained in a growth chamber for 6 days at 19° C. and 70% relative humidity. Each test unit was then visually assessed for insect mortality.

SMILES: CC(C)NC(=O)c1ccc(C2=NOC(c3ccc(F)c(C(F)(F)F)c3)(C(F)(F)F)C2)c2ccncc12 (centres unmarked) [Compound 59]
- control efficacy: feeding damage (and/or 100% mortality) ([1]; 0.4 ppm spray): ≤ 40%
- control efficacy: feeding damage (and/or 100% mortality) ([1]; 2 ppm spray): ≤ 40%
- control efficacy: feeding damage (and/or 100% mortality) ([1]; 10 ppm spray): ≤ 40%
- control efficacy: plant damage (and/or 100% mortality) ([2]; 2 ppm spray): ≤ 30%
- control efficacy: plant damage (and/or 100% mortality) ([2]; 10 ppm spray): ≤ 30%
- control efficacy: feeding damage (and/or 100% mortality) ([3]; 0.4 ppm spray): ≤ 40%
- control efficacy: feeding damage (and/or 100% mortality) ([3]; 2 ppm spray): ≤ 40%
- control efficacy: feeding damage (and/or 100% mortality) ([3]; 10 ppm spray): ≤ 40%
- mortality [4]: at least 80%

SMILES: O=C(NC1CC1)c1ccc(C2=NOC(c3cc(Cl)cc(Cl)c3)(C(F)(F)F)C2)c2ccncc12 (centres unmarked) [Compound 70, N-cyclopropyl-5-[5-(3,5-dichlorophenyl)-4,5-dihydro-5-(trifluoromethyl)-3-isoxazolyl]-8-isoquinolinecarboxamide]
- control efficacy: feeding damage (and/or 100% mortality) ([1]; 0.4 ppm spray): ≤ 40%
- control efficacy: feeding damage (and/or 100% mortality) ([1]; 2 ppm spray): ≤ 40%
- control efficacy: feeding damage (and/or 100% mortality) ([1]; 10 ppm spray): ≤ 40%
- control efficacy: plant damage (and/or 100% mortality) ([2]; 0.4 ppm spray): ≤ 30%
- control efficacy: plant damage (and/or 100% mortality) ([2]; 2 ppm spray): ≤ 30%
- control efficacy: feeding damage (and/or 100% mortality) ([3]; 0.4 ppm spray): ≤ 40%
- control efficacy: feeding damage (and/or 100% mortality) ([3]; 2 ppm spray): ≤ 40%
- control efficacy: feeding damage (and/or 100% mortality) ([3]; 10 ppm spray): ≤ 40%

SMILES: CC(C#N)NC(=O)c1ccc(C2=NOC(c3cc(Cl)cc(Cl)c3)(C(F)(F)F)C2)c2ccncc12 (centres unmarked) [Compound 78]
- control efficacy: feeding damage (and/or 100% mortality) ([1]; 2 ppm spray): ≤ 40%
- control efficacy: plant damage (and/or 100% mortality) ([2]; 0.4 ppm spray): ≤ 30%
- control efficacy: plant damage (and/or 100% mortality) ([2]; 2 ppm spray): ≤ 30%
- control efficacy: feeding damage (and/or 100% mortality) ([3]; 0.4 ppm spray): ≤ 40%
- control efficacy: feeding damage (and/or 100% mortality) ([3]; 2 ppm spray): ≤ 40%

SMILES: O=C(NC1CC1)c1ccc(C2=NO[C@@](c3cc(Cl)c(F)c(Cl)c3)(C(F)(F)F)C2)c2ccncc12 [Compound 82, S—N-cyclopropyl-5-[5-(3,5-dichloro-4-fluorophenyl)-4,5-dihydro-5-(trifluoromethyl)-3-isoxazolyl]-8-isoquinolinecarboxamide]
- control efficacy: feeding damage (and/or 100% mortality) ([1]; 0.4 ppm spray): ≤ 40%
- control efficacy: feeding damage (and/or 100% mortality) ([1]; 2 ppm spray): ≤ 40%
- control efficacy: plant damage (and/or 100% mortality) ([2]; 0.4 ppm spray): ≤ 30%
- control efficacy: plant damage (and/or 100% mortality) ([2]; 2 ppm spray): ≤ 30%
- control efficacy: feeding damage (and/or 100% mortality) ([3]; 0.4 ppm spray): ≤ 40%
- control efficacy: feeding damage (and/or 100% mortality) ([3]; 2 ppm spray): ≤ 40%

SMILES: CNC(=O)c1ccc(C2=NOC(c3cc(Cl)cc(C(F)(F)F)c3)(C(F)(F)F)C2)c2ccncc12 (centres unmarked) [Compound 84]
- control efficacy: feeding damage (and/or 100% mortality) ([1]; 0.4 ppm spray): ≤ 40%
- control efficacy: feeding damage (and/or 100% mortality) ([1]; 2 ppm spray): ≤ 40%
- control efficacy: plant damage (and/or 100% mortality) ([2]; 0.4 ppm spray): ≤ 30%
- control efficacy: plant damage (and/or 100% mortality) ([2]; 2 ppm spray): ≤ 30%
- control efficacy: feeding damage (and/or 100% mortality) ([3]; 0.4 ppm spray): ≤ 40%
- control efficacy: feeding damage (and/or 100% mortality) ([3]; 2 ppm spray): ≤ 40%
- mortality [4]: at least 80%

SMILES: C=CCNC(=O)c1ccc(C2=NOC(c3cccc(C(F)(F)F)c3)(C(F)(F)F)C2)c2ccncc12 (centres unmarked) [Compound 94]
- control efficacy: feeding damage (and/or 100% mortality) ([1]; 2 ppm spray): ≤ 40%
- control efficacy: plant damage (and/or 100% mortality) ([2]; 0.4 ppm spray): ≤ 30%
- control efficacy: plant damage (and/or 100% mortality) ([2]; 2 ppm spray): ≤ 30%
- control efficacy: feeding damage (and/or 100% mortality) ([3]; 0.4 ppm spray): ≤ 40%
- control efficacy: feeding damage (and/or 100% mortality) ([3]; 2 ppm spray): ≤ 40%
- mortality [4]: at least 80%

SMILES: CC(C)CNC(=O)c1ccc(C2=NOC(c3cc(Cl)cc(C(F)(F)F)c3)(C(F)(F)F)C2)c2ccncc12 (centres unmarked) [Compound 95]
- control efficacy: feeding damage (and/or 100% mortality) ([1]; 2 ppm spray): ≤ 40%
- control efficacy: plant damage (and/or 100% mortality) ([2]; 0.4 ppm spray): ≤ 30%
- control efficacy: plant damage (and/or 100% mortality) ([2]; 2 ppm spray): ≤ 30%
- control efficacy: feeding damage (and/or 100% mortality) ([3]; 0.4 ppm spray): ≤ 40%
- control efficacy: feeding damage (and/or 100% mortality) ([3]; 2 ppm spray): ≤ 40%

SMILES: CCNC(=O)c1ccc(C2=NOC(c3cccc(C(F)(F)F)c3)(C(F)(F)F)C2)c2ccncc12 (centres unmarked) [Compound 96]
- control efficacy: feeding damage (and/or 100% mortality) ([1]; 2 ppm spray): ≤ 40%
- control efficacy: plant damage (and/or 100% mortality) ([2]; 0.4 ppm spray): ≤ 30%
- control efficacy: plant damage (and/or 100% mortality) ([2]; 2 ppm spray): ≤ 30%
- control efficacy: feeding damage (and/or 100% mortality) ([3]; 0.4 ppm spray): ≤ 40%
- control efficacy: feeding damage (and/or 100% mortality) ([3]; 2 ppm spray): ≤ 40%
- mortality [4]: at least 80%

SMILES: C#CCNC(=O)c1ccc(C2=NOC(c3cccc(C(F)(F)F)c3)(C(F)(F)F)C2)c2ccncc12 (centres unmarked) [Compound 101]
- control efficacy: feeding damage (and/or 100% mortality) ([1]; 2 ppm spray): ≤ 40%
- control efficacy: plant damage (and/or 100% mortality) ([2]; 0.4 ppm spray): ≤ 30%
- control efficacy: plant damage (and/or 100% mortality) ([2]; 2 ppm spray): ≤ 30%
- mortality [4]: at least 80%

— patent US20220041582A1, “ISOXAZOLINE COMPOUNDS FOR CONTROLLING INVERTEBRATE PESTS” (FMC Corporation, priority 2018, published 2022)
